This note sets out measurements from article PMC3197616.

The data set concerns FoxO1. Put plainly: EMSA. The settings on record: 10 mM Tris-HCl pH 7.5, 1 mM MgCl2, 5 mM DTT, 40 mM KCl, 0.5% glycerol, 1 mg/mL BSA, 1% Ficoll, room temperature, 1 h, Tris-borate EDTA polyacrylamide gel, recombinant protein, protein details: His10, label: SYBR Gold stain in EMSA, 5'-FAM version also made. Background: Mobility shift assays separate free from complexed probe on a gel.

Construct, isoform or probe ends are uncertain for at least one entry.

With “TTAGCTCCTGTCCCAGTCCATCACCACGGGACAAACATAGTAGAAAACCTGATCCCTTTACCCCCTTCCACCCACGGTTTGTGTAGAGCTCACAAGCAAAACAAACTTATTTTGAACACTGGGGTCCTAGCACGCTGCCCTGACAATCATTAACCTGTGCCGCACAGCCAGCCCTTCATA (double strand) [IGFBP1 promoter 180 bp amplicon (-204 to -25)]”, the binding result is recorded as “binds” (FoxO1:DNA 1.5:1, 1:1 and 2:1 complexes, residual free DNA); “binds” (FoxO1:DNA 3:1, nearly complete depletion of free DNA, more 2:1 complex).
